Measured values reported in publication doi:10.1101/426734.
Results are given in words; binding and its absence hold for the method and conditions named. Binding seen in cells or lysates may run through a third protein. A result given as binding can be weak or reduced; the word gives no strength.

The chains behind the UniProt entries cited, without tags or fusion partners. Where a name states a change or a piece, a line headed by the entry shows the natural chain unless it says otherwise.
UniProt Q9EPR5: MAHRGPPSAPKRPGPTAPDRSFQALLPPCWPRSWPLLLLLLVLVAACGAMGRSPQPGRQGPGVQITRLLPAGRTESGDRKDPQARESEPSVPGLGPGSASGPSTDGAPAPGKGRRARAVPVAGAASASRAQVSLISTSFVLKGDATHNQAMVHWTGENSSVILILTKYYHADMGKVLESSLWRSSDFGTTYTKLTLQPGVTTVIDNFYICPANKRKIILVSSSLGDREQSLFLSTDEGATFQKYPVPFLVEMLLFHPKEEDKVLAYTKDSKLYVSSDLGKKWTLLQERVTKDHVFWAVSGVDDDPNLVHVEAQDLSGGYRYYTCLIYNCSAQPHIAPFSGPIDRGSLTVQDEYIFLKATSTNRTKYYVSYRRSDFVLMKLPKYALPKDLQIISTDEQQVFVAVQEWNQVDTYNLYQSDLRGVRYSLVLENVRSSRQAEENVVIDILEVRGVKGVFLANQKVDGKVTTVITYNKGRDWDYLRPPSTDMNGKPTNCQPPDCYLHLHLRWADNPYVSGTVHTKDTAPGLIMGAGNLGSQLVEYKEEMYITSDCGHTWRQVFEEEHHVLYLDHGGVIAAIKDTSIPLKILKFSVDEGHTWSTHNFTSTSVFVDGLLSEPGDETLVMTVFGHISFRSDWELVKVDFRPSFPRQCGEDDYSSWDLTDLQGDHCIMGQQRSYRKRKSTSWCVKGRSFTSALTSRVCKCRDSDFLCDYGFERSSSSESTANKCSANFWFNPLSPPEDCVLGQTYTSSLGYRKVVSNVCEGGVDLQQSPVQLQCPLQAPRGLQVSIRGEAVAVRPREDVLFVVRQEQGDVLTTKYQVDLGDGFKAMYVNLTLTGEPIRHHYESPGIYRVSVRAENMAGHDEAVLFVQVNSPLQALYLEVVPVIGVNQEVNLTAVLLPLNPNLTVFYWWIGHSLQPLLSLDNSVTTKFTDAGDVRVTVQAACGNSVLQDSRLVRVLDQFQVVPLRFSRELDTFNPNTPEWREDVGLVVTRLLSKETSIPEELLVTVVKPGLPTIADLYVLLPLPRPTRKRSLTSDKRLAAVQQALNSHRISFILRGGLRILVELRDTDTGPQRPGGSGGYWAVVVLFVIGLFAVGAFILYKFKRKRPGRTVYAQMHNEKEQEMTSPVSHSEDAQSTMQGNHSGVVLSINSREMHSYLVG

B1: rat EAAT3 (protein, UniProt P51907 1-523)
chain: MGKPTSSGCDWRRFLRNHWLLLSTVAAVVLGIVVGVLVRGHSELSNLDKFYFAFPGEILMRMLKLVILPLIISSMITGVAALDSNVSGKIGLRAVVYYFSTTVIAVILGIVLVVSIKPGVTQKVNEINRTGKTPEVSTVDAMLDLIRNMFPENLVQACFQQYKTKREEVKPASDPGGNQTEVSVTTAMTTMSENKTKEYKIVGLYSDGINVLGLIIFCLVFGLVIGKMGEKGQILVDFFNALSDATMKIVQIIMCYMPIGILFLIAGKIIEVEDWEIFRKLGLYMATVLSGLAIHSLVVLPLIYFIVVRKNPFRFALGMAQALLTALMISSSSATLPVTFRCAEEKNHVDKRITRFVLPVGATINMDGTALYEAVAAVFIAQLNGMDLSIGQIITISITATAASIGAAGVPQAGLVTMVIVLSAVGLPAEDVTLIIAVDWLLDRFRTMVNVLGDAFGTGIVEKLSKKELEQVDVSSEVNIVNPFALEPTILDNEDSDTKKSYVNGGFSVDKSDTISFTQTSQF
B2: endogenous EAAT3 (mouse) (protein, UniProt P51906 1-523)
chain: MGKPTSSGCDWRRFLRNHWLLLSTVAAVVLGIVLGVVVRGHSELSNLDKFYFAFPGEILMRMLKLVILPLIVSSMITGVAALDSNVSGKIGLRAVVYYFSTTVIAVILGIVLVVSIKPGVTQKVNDINRTGKTPEVSTMDAMLDLIRNMFPENLVQACFQQYKTKREEVKPVGDPGGNATEVSVTTAMTTMSENKTKEYKIVGLYSDGINVLGLIIFCLVFGLVIGKMGEKGQILVDFFNALSDATMKIVQIIMCYMPIGILFLIAGKIIEVEDWEIFRKLGLYMATVLSGLAIHSLIVLPLLYFIVVRKNPFRFALGMAQALLTALMISSSSATLPVTFRCAEEKNQVDKRITRFVLPVGATINMDGTALYEAVAAVFIAQLNGLDLSIGQIVTISITATAASIGAAGVPQAGLVTMVIVLSAVGLPAEDVTLIIAVDWLLDRFRTMVNVLGDAFGTGIVEKLSKKELEQMDVSSEVNIVNPFALEPTTLDNEDSDTKKSYVNGGFAVDKSDTISFTQTSQF
B3: JWA (protein, UniProt Q8R5J9 1-188)
chain: MDVNLAPLRAWDDFFPGSDRFARPDFRDISKWNNRVVSNLLYYQTNYLVVAAMMISVVGFLSPFNMILGGVIVVLVFMGFVWAAHNKDILRRMKKQYPTAFVMVVMLASYFLISMFGGVMVFVFGITLPLLLMFIHASLRLRNLKNKLENKMEGIGLKKTPMGIILDALEQQEDNINKFADYISKARE

Key:
[1] = target: murine SorCS2 tagged with GFP at the C-terminus (mouse) (UniProt Q9EPR5); assay: co-IP
[2] = target: endogenous SorCS2 (mouse hippocampus) (mouse (endogenous in mouse hippocampus)); assay: co-IP

Row | Binder | binding [1] | binding [2]
1 | B1 | binds | –
2 | B2 | – | binds
3 | B3 | – | no binding
